According to the supplement of paper PMC4635364:
Structures can show the parent of a compound that is named as a salt. The list shows a part of the results. This data set is noisy: repeats of one test often differ as much as different tests do.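 Human fetal ventral-midbrain neural progenitor line ReNCell VM, differentiated without mitogens. Images stained for doublecortin (early neurons) or tyrosine hydroxylase (dopaminergic neurons) were scored by blinded raters against untreated wells (0 = no change). Repeats and both raters were averaged, and compounds averaging 2 or higher were picked as hits for retesting.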

Experiments:
ReNCell VM [1] = assay: neuronal differentiation score (DCX+ cell fraction vs untreated, manual image score) (score (-3 to 3)); higher = more neuronal differentiation; details: 2 uM, 2 weeks
ReNCell VM [2] = assay: dopaminergic neuron differentiation score (TH+ cell fraction vs untreated, manual image score) (score (0 to 3)); higher = more TH+ dopaminergic neuron differentiation; details: 2 uM, 4 weeks, BDNF 10 ng/ml + GDNF 10 ng/ml

With `COc1c2c(nc3ccccc13)OC(C(C)(O)CO)C2` (centres undefined) [dubinidine] as the compound, how does the neuronal differentiation score (ReNCell VM [1]; library: Natural) read?
The neuronal differentiation score was inactive: 1.

What about the “dopaminergic neuron differentiation score” value (ReNCell VM [2]; library: Natural) of the same compound?
The value was inactive: 0.

With `CCC(=O)NCC[C@@H]1CCc2ccc3c(c21)CCO3` as the compound, how does the neuronal differentiation score (ReNCell VM [1]; library: Spectrum) read?
The neuronal differentiation score was inactive: 0.

And the “dopaminergic neuron differentiation score” value (ReNCell VM [2]; library: Spectrum)?
Its value is inactive: 0.

What does the source list for `CC(C)CN(C)c1nc(N)c(C(=O)N=C(N)N)nc1Cl` [5-(N-Methyl-N-isobutyl)amiloride]?
neuronal differentiation score (ReNCell VM [1]; library: LOPAC): inactive: 0; dopaminergic neuron differentiation score (ReNCell VM [2]; library: LOPAC): inactive: 0

With `COC1=CC(=O)C(O)=C/C1=C\C=C\c1ccccc1` as the compound, how does the neuronal differentiation score (ReNCell VM [1]; library: Spectrum) read?
Its neuronal differentiation score is inactive: 0.

And the “dopaminergic neuron differentiation score” value (ReNCell VM [2]; library: Spectrum)?
Its value is inactive: 0.

Which results are given for `C=C1CC[C@H](O)C/C1=C/C=C1\CCC[C@]2(C)[C@@H]([C@H](C)/C=C/[C@H](C)C(C)C)CC[C@@H]12` [Calciferol]?
neuronal differentiation score (ReNCell VM [1]; library: Phytochemical): inactive: 0; dopaminergic neuron differentiation score (ReNCell VM [2]; library: Phytochemical): inactive: 0

How did the neuronal differentiation score (ReNCell VM [1]; library: Spectrum) turn out when `CC(C)=CCC/C(C)=C\CO` was run?
The neuronal differentiation score was inactive: 0.

And the “dopaminergic neuron differentiation score” value (ReNCell VM [2]; library: Spectrum)?
Its value is inactive: 0.

With `O=C(O)c1cc2cc(F)ccc2[nH]1` [5-Fluoroindole-2-carboxylic acid] as the compound, how does the neuronal differentiation score (ReNCell VM [1]; library: LOPAC) read?
The neuronal differentiation score was inactive: 0.

And the “dopaminergic neuron differentiation score” value (ReNCell VM [2]; library: LOPAC)?
Its value is inactive: 0.

`CC(C)n1c(/C=C/C(O)CC(O)CC(=O)O)c(-c2ccc(F)cc2)c2ccccc21` (centres undefined) was tested. Which neuronal differentiation score (ReNCell VM [1]; library: Spectrum) did it give?
The neuronal differentiation score was active: 3.

And the “dopaminergic neuron differentiation score” value (ReNCell VM [2]; library: Spectrum)?
The value was inactive: 1.

How did the neuronal differentiation score (ReNCell VM [1]; library: LOPAC) turn out when `Nc1ncnc2c1ncn2[C@@H]1O[C@@H]2COP(=O)(O)O[C@H]2[C@H]1O` [Adenosine 3',5'-cyclic monophosphate] was run?
Its neuronal differentiation score is inactive: 0.

What about the “dopaminergic neuron differentiation score” value (ReNCell VM [2]; library: LOPAC) of the same compound?
Its value is inactive: 0.

For `COc1ccccc1N1CCN(CCN2C(=O)c3ccccc3C(C)(C)C2=O)CC1` [ARC 239 dihydrochloride], which neuronal differentiation score (ReNCell VM [1]; library: Tocriscreen) is on record?
Its neuronal differentiation score is inactive: 0.

What about the “dopaminergic neuron differentiation score” value (ReNCell VM [2]; library: Tocriscreen) of the same compound?
Its value is inactive: 0.

What does the source list for `CC(C)NC[C@@H](O)COc1cccc2ccccc12`?
neuronal differentiation score (ReNCell VM [1]; library: Spectrum): inactive: 0; dopaminergic neuron differentiation score (ReNCell VM [2]; library: Spectrum): inactive: 0

For `O=C(O)Cc1c[nH]c2ccc(O)cc12` [5-Hydroxyindolacetic acid], which neuronal differentiation score (ReNCell VM [1]; library: LOPAC) is on record?
Its neuronal differentiation score is inactive: 0.

And the “dopaminergic neuron differentiation score” value (ReNCell VM [2]; library: LOPAC)?
The value was inactive: 0.

What does the source list for `O=C(O)Cc1cc(I)c(Oc2ccc(O)c(I)c2)c(I)c1`?
neuronal differentiation score (ReNCell VM [1]; library: Spectrum): inactive: 0; dopaminergic neuron differentiation score (ReNCell VM [2]; library: Spectrum): inactive: 0

How did the neuronal differentiation score (ReNCell VM [1]; library: Spectrum) turn out when `O=C(Nc1ccc([N+](=O)[O-])cc1Cl)c1cc(Cl)ccc1O` was run?
The neuronal differentiation score was inactive: 0.

And the “dopaminergic neuron differentiation score” value (ReNCell VM [2]; library: Spectrum)?
The value was inactive: 0.

What does the source list for `S=c1[nH]cnc2nc[nH]c12` [Mercaptopurine]?
neuronal differentiation score (ReNCell VM [1]; library: Prestwick): inactive: 0; dopaminergic neuron differentiation score (ReNCell VM [2]; library: Prestwick): inactive: 0

What does the source list for `C[N+](C)(C)CC[N+]1(C)Cc2c(Cl)c(Cl)c(Cl)c(Cl)c2C1` [Chlorisondamine diiodide]?
neuronal differentiation score (ReNCell VM [1]; library: Tocriscreen): inactive: 0; dopaminergic neuron differentiation score (ReNCell VM [2]; library: Tocriscreen): inactive: 1

For `C[C@H](CCC(=O)O)[C@H]1CC[C@H]2[C@@H]3CC[C@@H]4C[C@H](O)CC[C@]4(C)[C@H]3C[C@H](O)[C@]12C`, which neuronal differentiation score (ReNCell VM [1]; library: Spectrum) is on record?
The neuronal differentiation score was inactive: 0.

What about the “dopaminergic neuron differentiation score” value (ReNCell VM [2]; library: Spectrum) of the same compound?
The value was inactive: 0.

`CCC1(c2ccccc2)C(=O)NCNC1=O` was tested. Which neuronal differentiation score (ReNCell VM [1]; library: Spectrum) did it give?
Its neuronal differentiation score is inactive: 0.

And the “dopaminergic neuron differentiation score” value (ReNCell VM [2]; library: Spectrum)?
Its value is inactive: 0.

With `COc1ccc(-c2oc3ccccc3c(=O)c2OC)cc1` as the compound, how does the neuronal differentiation score (ReNCell VM [1]; library: Spectrum) read?
The neuronal differentiation score was inactive: 0.

What about the “dopaminergic neuron differentiation score” value (ReNCell VM [2]; library: Spectrum) of the same compound?
Its value is inactive: 0.

Which neuronal differentiation score (ReNCell VM [1]; library: Tocriscreen) does the source give for `COc1ccc2[nH]c(I)c(CCNC(C)=O)c2c1` [2-Iodomelatonin] here?
Its neuronal differentiation score is inactive: 0.

And the “dopaminergic neuron differentiation score” value (ReNCell VM [2]; library: Tocriscreen)?
The value was inactive: 0.

Which results are given for `CC1CCC2(O)C(C)(C)C3CCC2(C)C1C3` (centres undefined) [patchouli alcohol]?
neuronal differentiation score (ReNCell VM [1]; library: Natural): inactive: 0; dopaminergic neuron differentiation score (ReNCell VM [2]; library: Natural): inactive: 0

How did the neuronal differentiation score (ReNCell VM [1]; library: Prestwick) turn out when `O=C(O)Cc1ccc(-c2ccccc2)cc1` [Felbinac] was run?
Its neuronal differentiation score is inactive: 0.

And the “dopaminergic neuron differentiation score” value (ReNCell VM [2]; library: Prestwick)?
The value was inactive: 0.

Which results are given for `CCCCCCCCCCCCC[N+](C)(C)Cc1ccccc1`?
neuronal differentiation score (ReNCell VM [1]; library: Spectrum): inactive: 0; dopaminergic neuron differentiation score (ReNCell VM [2]; library: Spectrum): inactive: 0

For `COc1cc(/C=C/C(=O)O)ccc1O`, which neuronal differentiation score (ReNCell VM [1]; library: Spectrum) is on record?
Its neuronal differentiation score is inactive: 0.

And the “dopaminergic neuron differentiation score” value (ReNCell VM [2]; library: Spectrum)?
The value was inactive: 0.

Which neuronal differentiation score (ReNCell VM [1]; library: Spectrum) does the source give for `CC(C)(Oc1ccc(C2CC2(Cl)Cl)cc1)C(=O)O` (centres undefined) here?
The neuronal differentiation score was inactive: 0.

What about the “dopaminergic neuron differentiation score” value (ReNCell VM [2]; library: Spectrum) of the same compound?
The value was inactive: 0.

Which neuronal differentiation score (ReNCell VM [1]; library: Spectrum) does the source give for `CC(C(=O)O)c1cccc(C(=O)c2ccccc2)c1` (centres undefined) here?
The neuronal differentiation score was inactive: 0.

And the “dopaminergic neuron differentiation score” value (ReNCell VM [2]; library: Spectrum)?
The value was inactive: 0.

Which results are given for `COc1cc(OC)c(C(=O)CCCN2CCCC2)c(OC)c1` [Buflomedil hydrochloride]?
neuronal differentiation score (ReNCell VM [1]; library: Prestwick): inactive: 0; dopaminergic neuron differentiation score (ReNCell VM [2]; library: Prestwick): inactive: 0

Which results are given for `Nc1nc2n[nH]nc2c(=O)[nH]1` [Azaguanine-8]?
neuronal differentiation score (ReNCell VM [1]; library: Prestwick): inactive: 0; dopaminergic neuron differentiation score (ReNCell VM [2]; library: Prestwick): inactive: 0

For `CCN(CC)CCNC(C(=O)OCCC(C)C)c1ccccc1` (centres undefined), which neuronal differentiation score (ReNCell VM [1]; library: Spectrum) is on record?
Its neuronal differentiation score is inactive: 0.

What about the “dopaminergic neuron differentiation score” value (ReNCell VM [2]; library: Spectrum) of the same compound?
The value was inactive: 0.

What does the source list for `O=C1O[C@H](CO)[C@@H](O)[C@H](O)[C@H]1O`?
neuronal differentiation score (ReNCell VM [1]; library: Spectrum): inactive: 0; dopaminergic neuron differentiation score (ReNCell VM [2]; library: Spectrum): inactive: 0

Which neuronal differentiation score (ReNCell VM [1]; library: Prestwick) does the source give for `Cc1cc(NC(=O)C2=C(O)c3ccccc3S(=O)(=O)N2C)no1` [Isoxicam] here?
The neuronal differentiation score was inactive: 0.

And the “dopaminergic neuron differentiation score” value (ReNCell VM [2]; library: Prestwick)?
The value was inactive: 0.

What does the source list for `CCS(=O)(=O)N(C)[C@H]1c2cc(C#N)ccc2OC(C)(C)[C@@H]1O` [(-)-[3R,4S]-Chromanol 293B]?
neuronal differentiation score (ReNCell VM [1]; library: Tocriscreen): inactive: 0; dopaminergic neuron differentiation score (ReNCell VM [2]; library: Tocriscreen): inactive: 0

How did the neuronal differentiation score (ReNCell VM [1]; library: Spectrum) turn out when `C=C[C@H]1CN2CC[C@H]1C[C@H]2[C@H](O)c1ccnc2ccc(OC)cc12` was run?
Its neuronal differentiation score is inactive: 0.

And the “dopaminergic neuron differentiation score” value (ReNCell VM [2]; library: Spectrum)?
Its value is inactive: 0.

For `C=CC(N)CCC(=O)O` (centres undefined), which neuronal differentiation score (ReNCell VM [1]; library: Spectrum) is on record?
Its neuronal differentiation score is inactive: 0.

What about the “dopaminergic neuron differentiation score” value (ReNCell VM [2]; library: Spectrum) of the same compound?
The value was inactive: 0.

Which neuronal differentiation score (ReNCell VM [1]; library: Phytochemical) does the source give for `O=C(O)c1cc(=O)c2cccc(O)c2[nH]1` [Xanthurenic Acid] here?
The neuronal differentiation score was inactive: 0.

What about the “dopaminergic neuron differentiation score” value (ReNCell VM [2]; library: Phytochemical) of the same compound?
Its value is inactive: 0.

Which neuronal differentiation score (ReNCell VM [1]; library: Prestwick) does the source give for `Nc1ccc(S(=O)(=O)NC(=O)c2ccccc2)cc1` [Sulfabenzamide] here?
Its neuronal differentiation score is inactive: 0.

What about the “dopaminergic neuron differentiation score” value (ReNCell VM [2]; library: Prestwick) of the same compound?
The value was inactive: 0.

With `Nc1nccc(-c2ccc3noc(-c4ccc(Cl)cc4)c3c2)n1` [PIM 1 Inhibitor 2] as the compound, how does the neuronal differentiation score (ReNCell VM [1]; library: Tocriscreen) read?
Its neuronal differentiation score is inactive: -1.

And the “dopaminergic neuron differentiation score” value (ReNCell VM [2]; library: Tocriscreen)?
The value was inactive: 0.
